This is one part of the list. These are further read-outs of the screen, such as a control signal, another cell line or another target. No call is given for them. Most of these compounds were active or inconclusive in the main read-out, so they are no random draw. Potencies come from curve fits of mixed quality, noted in brackets.
Assay: qHTS Assay for Modulators of Lamin A Splicing
Details: HeLa LMNA splicing GFP/RFP minigene ratio, 48 h
Outline: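 S3 HeLa cells stably expressing lamin A-EGFP splicing minigene plus DsRed2, 600 cells/well, 48 h compound exposure at 37C. Laser-scanning cytometry; analysed as GFP (500-530 nm)/RFP (575-640 nm) total intensity ratio; 0.5% DMSO vehicle.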

[1] = measured here: GFP splicing reporter channel
[2] = measured here: RFP viability control channel

Row | SMILES | AC50 [1] | AC50 [2]
1 | O=C(NC(=S)Nc1ccc(Br)cn1)c1cccs1 | 1.41 µM [rising, full curve, poor fit] | 1.12 µM [rising, full curve]
2 | NC(=O)c1cc(-c2ccccc2)nc(N2CCOCC2)n1 | – | 14.1 µM [rising, partial curve]
3 | CCNc1ccc(Br)cc(C(=O)/C=C/c2ccc(Cl)cc2Cl)c1=O | 25.1 µM [falling, single point] | 12.6 µM [falling, single point]
4 | COc1ccc(NC(=O)c2ocnc2C)cc1OC | 0.708 µM [falling, partial curve] | 0.631 µM [falling, partial curve]
5 | CC1CCN(C(=O)CCS(=O)(=O)c2cc3c(cc2Cl)NC(=O)CO3)CC1 | – | 15.8 µM [rising, single point]
6 | Fc1ccc(Nc2nc(SCc3cccc(F)c3)nc3ccccc23)cc1 | 35.5 µM [falling, partial curve, poor fit] | 35.5 µM [falling, partial curve]
7 | COc1ccc(NC(=O)c2nc(C)n(-c3ccc([N+](=O)[O-])cc3)n2)cc1 | 4.47 µM [rising, full curve, poor fit] | 6.31 µM [rising, partial curve]
8 | N#CCCn1c(=O)c(-c2cccc(C#N)c2)nc2cnc(Oc3cccc(Cl)c3)nc21 | 7.08 µM [falling, partial curve] | –
9 | COc1ccccc1N1CCN(C(c2cccs2)C(C)NS(=O)(=O)c2ccccc2)CC1 (stereo not given) | – | 35.5 µM [rising, single point]
10 | c1ccc(N2CCN(c3c4c(nc5ncnn35)CCC4)CC2)cc1 | 7.08 µM [rising, partial curve] | 12.6 µM [rising, partial curve]
11 | CCN(CC)C(=O)Nc1cnc2ccccc2c1 | – | 0.00447 µM [falling, full curve, poor fit]
12 | CNC(=S)N/N=C(\C)c1ccc2c(c1)OCO2 | – | 0.562 µM [rising, partial curve, poor fit]
13 | Cc1ccc(-c2csc(N(CCCN3CCOCC3)C(=O)c3ccco3)n2)cc1 | 12.6 µM [rising, single point] | –
14 | COc1ccc(-c2nn(CC(=O)NCCc3ccccc3)c(=S)n2C)cc1 | 20 µM [rising, partial curve, poor fit] | 17.8 µM [rising, partial curve]
15 | CC(=O)Nc1cccc(C(=O)/C=C/c2ccc(F)cc2)c1 | 7.94 µM [falling, partial curve, poor fit] | –
16 | CCC1CCC(C(=O)NNC(=O)c2cc(-c3ccco3)[nH]n2)CC1 (stereo not given) | – | 3.16 µM [falling, partial curve]
17 | COc1ccc2cc(CN(Cc3cccnc3)S(=O)(=O)c3ccccc3)c(=O)[nH]c2c1 | 0.00891 µM [rising, full curve, poor fit] | 20 µM [rising, partial curve, poor fit]
18 | O=C(Nc1sc2c(c1C(=O)c1ccc(Cl)cc1)CCCC2)c1cccnc1 | 5.62 µM [rising, partial curve, poor fit] | 5.62 µM [rising, partial curve]
19 | Cc1ccc(OCc2ccc(C(=O)Nc3ccc(C(N)=O)cc3)o2)c([N+](=O)[O-])c1 | 35.5 µM [falling, single point] | 35.5 µM [falling, single point]
20 | O=C1CCN(c2ncccc2[N+](=O)[O-])CC1 | – | 3.98 µM [falling, partial curve, poor fit]
21 | CC(=O)Nc1ccc(OCC(O)CN2CCN(c3ccc(Cl)cc3)CC2)cc1 (stereo not given) | – | 22.4 µM [rising, single point]
22 | CSc1nc2ccc(NS(=O)(=O)c3ccc(Cl)s3)cc2s1 | – | 15.8 µM [rising, single point]
23 | O=c1c2c(-c3ccc(Cl)cc3)csc2ncn1/N=C/c1cccc([N+](=O)[O-])c1O | 20 µM [rising, partial curve] | 12.6 µM [rising, partial curve]
24 | CC1Cc2ccccc2N1CC(=O)NC(=O)NCc1ccco1 (stereo not given) | – | 35.5 µM [rising, single point]
25 | O=C(OCc1cc(Cl)ccc1OC(F)F)c1cccnc1 | – | 2.24 µM [falling, partial curve]
26 | O=C(/C=C/c1ccc(F)cc1)Nc1cc(S(=O)(=O)N2CCOCC2)ccc1N1CCCC1 | 35.5 µM [rising, single point] | 28.2 µM [rising, single point]
27 | CCOC(=O)c1c(-c2ccccc2)csc1NC(=S)N(CC)CC | – | 28.2 µM [rising, single point]

Taken from the entries so far (three entries):
Row | SMILES | AC50 [1] | AC50 [2]
2 | NC(=O)c1cc(-c2ccccc2)nc(N2CCOCC2)n1 | – | 14.1 µM [rising, partial curve]
3 | CCNc1ccc(Br)cc(C(=O)/C=C/c2ccc(Cl)cc2Cl)c1=O | 25.1 µM [falling, single point] | 12.6 µM [falling, single point]
4 | COc1ccc(NC(=O)c2ocnc2C)cc1OC | 0.708 µM [falling, partial curve] | 0.631 µM [falling, partial curve]

Further results

Row | SMILES | AC50 [1] | AC50 [2]
28 | O=C(Nc1cccnc1)Nc1ccc(F)c(Cl)c1 | – | 25.1 µM [rising, single point]
29 | Cc1ccc(C(=O)OC2=C(C(=O)c3ccccc3)N(C)S(=O)(=O)c3ccccc32)cc1 | 0.0794 µM [falling, full curve, poor fit] | –
30 | COc1cccc(-c2cc(=O)c3cc(NC(=O)c4ccc(N(C)C)cc4)ccc3[nH]2)c1 | 1.58 µM [falling, single point] | –
31 | Nc1c(NC(=O)CC[n+]2ccccc2)cccc1[N+](=O)[O-] | 35.5 µM [rising, single point] | 35.5 µM [rising, single point]
32 | CC(=O)[C@@H]1CC[C@@H]2[C@@H]3C[C@H](C)C4=CC(=O)CC[C@@]4(C)[C@H]3[C@H](O)C[C@]21C | 8.91 µM [rising, partial curve] | 7.08 µM [rising, partial curve]
33 | CCc1ccc(OCC(=O)NC(NC(=S)Nc2ccc(C)cc2C)C(Cl)(Cl)Cl)cc1 (stereo not given) | 14.1 µM [falling, single point] | 11.2 µM [falling, partial curve]
34 | CCCCOc1ccc(-c2nnc(-c3ccco3)o2)cc1 | 12.6 µM [rising, partial curve] | –
35 | O=C(Nc1ccc(Oc2ccccc2)cc1)c1ccc(F)c(S(=O)(=O)N2CCN(c3cccc(Cl)c3)CC2)c1 | 0.447 µM [falling, full curve, poor fit] | –
36 | S=c1[nH]nc(-c2cccnc2)n1/N=C/C=C/c1ccco1 | – | 0.00398 µM [falling, full curve, poor fit]
37 | CN(C)c1cccc(C(=O)NCc2ccccc2Cl)c1 | 35.5 µM [rising, single point] | 28.2 µM [rising, single point]
38 | CC#CCN1c2ccccc2[C@]23C[C@@H](C(=O)OC)N(C(=O)c4cc(C)oc4C)C2=NC(C(=O)OC)=C(C(=O)OC)[C@H]13 | 3.16 µM [rising, single point] | 3.16 µM [rising, single point]
39 | O=C(c1cc(C(=O)N2CCOCC2)c2nc3ccccc3n2c1)c1ccccc1O | 10 µM [falling, partial curve, poor fit] | –
40 | N#CC1=C(SCc2ccc(C#N)cc2)N=C(N)C(c2nc(-c3ccccc3)cs2)C12CCCCC2 (stereo not given) | – | 11.2 µM [rising, single point]
41 | Cc1ccc(C)c(N2C(=O)N(Cc3ccccc3C)c3ccccc3S2(=O)=O)c1 | – | 0.00447 µM [falling, full curve, poor fit]
42 | CC(C)(C)NC[C@H](O)COc1cccc2c1C[C@@H](O)[C@@H](O)C2 | 0.251 µM [falling, single point] | 0.398 µM [falling, single point]
43 | CCOc1cccc2cc(-c3nnc(NCc4ccc5c(c4)OCO5)s3)c(=O)oc12 | – | 3.16 µM [rising, single point]
44 | Cc1ccc(NC(=O)Cc2ccc(NC(=O)N3CCCCc4ccccc43)cc2)cc1Cl | 0.1 µM [falling, full curve] | 1.58 µM [falling, partial curve, poor fit]
45 | O=C(O)/C=C/c1ccc(O)c(O)c1 | 2.82 µM [rising, single point] | 2.82 µM [rising, full curve]
46 | Cc1cc(C)c(NC(=O)/C(=C/c2ccccc2)c2ccccc2)c(C)c1 | 17.8 µM [rising, single point] | 28.2 µM [rising, single point]
47 | CCSc1ncc(/C=N/Nc2ccccc2)n1C | 11.2 µM [rising, single point] | 12.6 µM [rising, partial curve]
48 | CS(=O)(=O)c1ccc(C(=O)Nc2ccc(N3CCCCC3)cc2)c(Cl)c1 | 0.891 µM [rising, full curve, poor fit] | –
49 | Cc1cccc(C)c1-n1ncc(C(=O)NCCCN2CCCCC2)c1C1CCN(C(=O)OC(C)(C)C)CC1 | – | 35.5 µM [rising, partial curve]
50 | COc1ccc(C2CC(C(F)(F)F)n3nc(C(=O)NCc4c(C)nn(C)c4C)c(Cl)c3N2)cc1 (stereo not given) | – | 11.2 µM [rising, partial curve]
51 | O=[N+]([O-])c1ccc(/C=C/C2=NN(c3ccccc3)C(c3ccco3)C2)cc1 (stereo not given) | – | 15.8 µM [rising, partial curve]
52 | C/C=C/C=C/C(=O)OCC(=O)Nc1ccc(Cl)cc1 | – | 0.562 µM [falling, partial curve, poor fit]
53 | CCCNC(=O)COC(=O)/C=C/c1ccc(C)o1 | – | 0.398 µM [falling, partial curve, poor fit]

Reference: PubChem BioAssay AID1487 (National Center for Advancing Translational Sciences (NCATS), 2009)
